Our source for the viability values is PubChem BioAssay AID602 (SRMLSC, 2007).

As usually defined, the viability is a read-out of living cells in per cent, often relative to untreated cells.

The list shows a part of the results. Some of these compounds have results that are not shown, active ones among them.

The test is described as follows: MRP1 drug-resistance reversers in H69AR cells – cell-based, doxorubicin co-treatment, primary screen (AID 602). To be noted: H69AR cells + 2 uM doxorubicin, CellTiter-Glo, 72 h; measured here: viability with 2 uM doxorubicin; at 10 µM; stronger effect = lower value.
Regarding `O=C(OC1CN2CCC1CC2)C(CO)(c1ccccc1)c1ccccc1` (configuration not stated), the viability stood at 88.2%.

Regarding `CN(C)c1cccc(C(=O)NCC2(N(C)C)CCCCC2)c1`, the viability was 95.2%.
